# The other results are listed elsewhere or left out. The main result of the screen is listed elsewhere. These columns were measured beside it and carry no call. Compounds called inactive in the main read-out are mostly missing here. The note in brackets gives the kind of curve behind each potency; many fits are weak.
# Experiments:
# [1] = qHTS Assay for Modulators of Human Peripheral Myelin Protein 22 (PMP22) Expression/Activity (AID 1967); conditions: Cell-based PMP22 reporter, dual-color luciferase ratio; measured here: red reporter channel AC50; EF-alpha promoter control reporter in MSC80 mouse Schwann cells
# Procedure, shortened: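 Luminescence ratio of Pmp22 promoter-driven green luciferase to EF-alpha-driven red luciferase, in engineered mouse MSC80 Schwann cells, served as read-out. Compounds were incubated 24h; untreated cells defined 0% Activity; curves were classified by r2, magnitude and activity.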
# [2] = qHTS Validation Assay to Find Inhibitors of Chronic Active B-Cell Receptor Signaling (AID 485345); conditions: ABC-DLBCL cells, chronic BCR signaling reporter
# Procedure, shortened: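 TMD8 ABC-DLBCL cells stably carrying doxycycline-inducible IkappaBalpha–green luciferase fusion plus unfused red luciferase; compounds 46 uM to 3 nM, 4 h at 37C with doxycycline. Corrected green/red luminescence ratio normalized to 10 uM MG-132 and basal cell wells; curves fitted.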
# [3] = Nrf2 qHTS screen for inhibitors: Validation (AID 493153); conditions: A549 ARE-Fluc reporter, 18-24 h; AC50: CellTiter-Fluor fluorescence read, measured here: cytotoxicity CellTiter-Fluor AC50; viability change: measured here: cytotoxicity max response
# Procedure, shortened: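 Concentration-response on A549 ARE_Fluc reporter cells exposed 18-24 h at 37 C, 5% CO2. Cytotoxicity read first by CellTiter-Fluor fluorescence (Ex 405/Em 525), then Nrf2 inhibition by BugLite luminescence after 15 min.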
# [4] = measured here: CBR control luciferase (viability counter)
# [5] = measured here: CBG/CBR ratio read-out
smiles,measurement,setting,value
O=C(O)C1=CC(=C(c2ccc(O)c(C(=O)O)c2)c2ccc(O)c(C(=O)O)c2)C=CC1=O,AC50,[1],"67.5 µM [falling, partial curve, poor fit]"
same,AC50,[2]; [4],"2.59 µM [falling, partial curve]"
C[C@]12C=CC(=O)C=C1CC[C@@H]1C2=CC[C@]2(C)[C@@H](C(=O)CN3CCN(c4cc(N5CCCC5)nc(N5CCCC5)n4)CC3)CC[C@@H]12,AC50,[2]; [5],"20.6 µM [falling, single point]"
same,AC50,[2]; [4],"4.61 µM [rising, partial curve, poor fit]"
C[C@H](Cc1ccccc1)Nc1ncnc2c1ncn2[C@@H]1O[C@H](CO)[C@@H](O)[C@H]1O,AC50,[2]; [5],"0.291 µM [falling, full curve]"
same,AC50,[2]; [4],"0.092 µM [rising, full curve]"
OC[C@H]1O[C@H](n2cnc3c(N[C@H]4CCC[C@@H]4O)ncnc32)[C@H](O)[C@@H]1O,AC50,[2]; [5],"7.31 µM [falling, partial curve]"
same,AC50,[2]; [4],"18.4 µM [rising, partial curve]"
CNC(=O)[C@H]1O[C@@H](n2cnc3c(NCc4cccc(I)c4)ncnc32)[C@H](O)[C@@H]1O,AC50,[2]; [5],"0.82 µM [falling, full curve]"
same,AC50,[2]; [4],"0.184 µM [rising, full curve]"
same,viability change,[3],0.142%
Nc1nc(Nc2ccccc2)nc2c1ncn2[C@@H]1O[C@H](CO)[C@@H](O)[C@H]1O,AC50,[2]; [5],"0.184 µM [falling, full curve]"
same,AC50,[2]; [4],"0.0461 µM [rising, full curve]"
Cc1cc2c(cc1Cl)N(C(=O)Nc1ccc(Oc3cccnc3C)nc1)CC2,AC50,[2]; [4],"23.1 µM [falling, single point]"
Nc1nc(Cl)nc2c1ncn2[C@@H]1O[C@H](CO)[C@@H](O)[C@H]1O,AC50,[2]; [5],"2.31 µM [falling, partial curve]"
same,AC50,[2]; [4],"0.366 µM [rising, full curve]"
O=[N+]([O-])c1ccc(CSc2ncnc3c2ncn3[C@@H]2O[C@H](CO)[C@@H](O)[C@H]2O)cc1,AC50,[2]; [5],"2.91 µM [falling, partial curve, poor fit]"
same,AC50,[2]; [4],"0.00411 µM [rising, full curve, poor fit]"
same,viability change,[3],-1.4%
COc1ccccc1OCCNCC(O)COc1cccc2[nH]c3ccccc3c12 (stereo not drawn),AC50,[2]; [5],"14.6 µM [falling, partial curve]"
same,AC50,[2]; [4],"18.4 µM [falling, single point]"
CNCCc1cnc(CCC(c2ccccc2)c2ccccc2)[nH]1,AC50,[2]; [5],"20.6 µM [falling, single point]"
same,AC50,[2]; [4],"25.9 µM [falling, single point]"
same,AC50,[3],"25.9 µM [falling, single point]"
same,viability change,[3],-31%
Cn1c(=O)c2[nH]c(-c3ccccc3)nc2n(C)c1=O,AC50,[2]; [4],"0.411 µM [falling, full curve, poor fit]"
same,viability change,[3],-5.65%
O=C(CCCCCN1CCN(c2ccccc2-c2ccccc2)CC1)NC1CCCc2ccccc21 (stereo not drawn),AC50,[2]; [5],"18.4 µM [falling, single point]"
same,AC50,[2]; [4],"18.4 µM [falling, single point]"
same,AC50,[3],"20.6 µM [falling, single point]"
same,viability change,[3],-37.4%
C=CCNc1ncnc2ccc(Br)cc12,AC50,[2]; [4],"18.4 µM [falling, single point]"
same,viability change,[3],1.68%
N#Cc1cc([N+](=O)[O-])c2sc(C(N)=O)[n+]([O-])c2c1,AC50,[2]; [5],"11.6 µM [falling, partial curve]"
same,AC50,[2]; [4],"6.51 µM [falling, partial curve]"
same,viability change,[3],-8.64%
Nc1ncnc2c1c(I)cn2[C@@H]1C[C@H](N)[C@@H](O)[C@H]1O,AC50,[2]; [5],"0.326 µM [falling, partial curve]"
same,viability change,[3],-13.4%
CSc1nc(N)c2ncn([C@@H]3O[C@H](COP(=O)(O)OP(=O)(O)O)C(O)[C@H]3O)c2n1 (stereo partly drawn),AC50,[2]; [5],"11.6 µM [falling, partial curve]"
same,AC50,[2]; [4],"20.6 µM [rising, single point]"
CNC(=O)[C@H]1O[C@@H](n2cnc3c(NCc4ccc(N)cc4)ncnc32)[C@H](O)[C@@H]1O,AC50,[2]; [5],"8.2 µM [falling, partial curve]"
same,AC50,[2]; [4],"4.11 µM [rising, full curve]"
CC(C)(C)[C@]1(O)CCN2C[C@H]3c4ccccc4CCc4cccc(c43)[C@@H]2C1,AC50,[2]; [4],"20.6 µM [falling, single point]"
same,viability change,[3],-0.275%
Nc1nc(SCc2ccc([N+](=O)[O-])cc2)c2ncn([C@@H]3O[C@H](CO)[C@@H](O)[C@H]3O)c2n1,AC50,[2]; [5],"0.0184 µM [falling, full curve]"
same,AC50,[2]; [4],"0.0326 µM [rising, full curve, poor fit]"
OC[C@H]1O[C@@H](n2cnc3c(NC4CCCC4)ncnc32)[C@H](O)[C@@H]1O,AC50,[2]; [5],"2.59 µM [falling, partial curve]"
same,AC50,[2]; [4],"0.58 µM [rising, full curve]"
O=c1cc(-c2ccccc2F)[nH]c2cc3c(cc12)OCO3,AC50,[2]; [5],"0.651 µM [falling, full curve]"
same,AC50,[2]; [4],"0.82 µM [rising, full curve]"
same,AC50,[3],"25.9 µM [falling, partial curve, poor fit]"
same,viability change,[3],-24.6%
CCNC(=O)[C@H]1O[C@@H](n2cnc3c(N)nc(NCCc4ccc(CCC(=O)O)cc4)nc32)[C@H](O)[C@@H]1O,AC50,[2]; [5],"0.0411 µM [falling, full curve]"
same,AC50,[2]; [4],"0.0184 µM [rising, full curve]"
NC(=S)c1ccc[n+]([C@@H]2O[C@@H](COP(=O)([O-])OP(=O)(O)OC[C@H]3O[C@@H](n4cnc5c(N)ncnc54)[C@H](OP(=O)(O)O)[C@@H]3O)C(O)C2O)c1 (stereo partly drawn),AC50,[2]; [5],"5.8 µM [falling, partial curve]"
same,AC50,[2]; [4],"4.11 µM [rising, partial curve]"
CC(=O)/C=C1\C(=O)N(C)c2ccccc21,AC50,[2]; [5],"18.4 µM [falling, partial curve]"
same,AC50,[2]; [4],"16.4 µM [falling, partial curve]"
CC1CC2C3CCC4=CC(=O)C=C[C@]4(C)[C@@]3(F)[C@@H](O)C[C@]2(C)[C@@]1(O)C(=O)CO (stereo partly drawn),AC50,[2]; [4],"0.0092 µM [rising, full curve, poor fit]"
Nc1nc(Cl)nc2c1ncn2[C@@H]1O[C@H](COP(=O)(O)OP(=O)(O)OP(=O)(O)O)[C@@H](O)[C@H]1O,AC50,[2]; [5],"0.461 µM [falling, full curve]"
same,AC50,[2]; [4],"0.116 µM [rising, full curve, poor fit]"
COc1cc2c(cc1OC)C1CC(=O)C(CC(C)C)CN1CC2 (stereo not drawn),AC50,[2]; [5],"20.6 µM [falling, single point]"
same,AC50,[2]; [4],"14.6 µM [rising, partial curve]"
COc1ccc(-c2cc3ncc(C)n3c(Nc3ncccc3C(N)=O)n2)cc1OC,AC50,[2]; [5],"0.461 µM [falling, single point]"
same,AC50,[2]; [4],"2.31 µM [falling, full curve]"
same,AC50,[3],"8.2 µM [falling, partial curve, poor fit]"
same,viability change,[3],-33.1%
CN(C)c1nc(N)c(C(=O)N=C(N)N)nc1Cl,AC50,[2]; [4],"16.4 µM [falling, single point]"
C#C[C@]1(O)CC[C@H]2[C@@H]3CCC4=Cc5oncc5CC4(C)[C@H]3CCC21C (stereo partly drawn),AC50,[2]; [5],"16.4 µM [falling, partial curve]"
same,AC50,[2]; [4],"29.1 µM [falling, single point]"
same,viability change,[3],10.9%
Cc1nn(-c2ccccc2)c(C)c1/C=N/N1CCN(Cc2ccccc2)CC1,AC50,[2]; [5],"6.51 µM [falling, partial curve]"
same,AC50,[2]; [4],"3.66 µM [rising, full curve, poor fit]"
O=c1[nH]c(=S)[nH]c(-c2ccccc2)c1Cc1c(O)ccc2ccccc12,AC50,[2]; [5],"11.6 µM [falling, partial curve]"
same,viability change,[3],7.99%
O=[N+]([O-])c1ccc2c(c1)S(=O)(=O)C=C2,AC50,[2]; [5],"5.17 µM [falling, single point]"
same,AC50,[2]; [4],"2.59 µM [falling, full curve]"
same,AC50,[3],"25.9 µM [falling, partial curve, poor fit]"
same,viability change,[3],-29.5%
CCCCC#Cc1nc(NC)c2ncn([C@@H]3O[C@H](CO)[C@@H](O)[C@H]3O)c2n1,AC50,[2]; [5],"6.51 µM [falling, partial curve]"
same,AC50,[2]; [4],"0.651 µM [rising, full curve]"
O=C1/C(=C/c2ccsc2)CC/C1=C\c1cccs1,AC50,[2]; [5],"18.4 µM [falling, partial curve]"
same,AC50,[2]; [4],"0.92 µM [falling, partial curve]"
Nc1ncnc2c1ncn2[C@@H]1O[C@H](COP(=O)(O)OP(=O)(O)OP(=O)(O)OP(=O)(O)OC[C@@H]2O[C@H](n3cnc4c(N)ncnc43)[C@@H](O)[C@H]2O)[C@@H](O)[C@H]1O,AC50,[2]; [5],"5.17 µM [falling, partial curve]"
same,AC50,[2]; [4],"3.26 µM [rising, full curve]"
CCCC1(C)C(C#N)(C#N)C1(C#N)C#N,AC50,[2]; [5],"5.17 µM [falling, single point]"
same,AC50,[2]; [4],"9.2 µM [falling, partial curve]"
same,AC50,[3],"18.4 µM [falling, partial curve, poor fit]"
same,viability change,[3],-25.6%
c1ccc(C(NCCNC(c2ccccc2)c2ccccc2)c2ccccc2)cc1,AC50,[2]; [4],"18.4 µM [falling, single point]"
same,viability change,[3],-18.7%
NC(=O)C1=CN(C2OC(COP(=O)(O)OP(=O)(O)OC[C@H]3O[C@@H](n4cnc5c(N)ncnc54)[C@H](OP(=O)(O)O)[C@@H]3O)C(O)C2O)C=CC1 (stereo partly drawn),AC50,[2]; [5],"2.59 µM [falling, full curve]"
same,AC50,[2]; [4],"7.31 µM [rising, partial curve]"

# 5 entries picked at random from the list so far, as already listed:
smiles,measurement,setting,value
CSc1nc(N)c2ncn([C@@H]3O[C@H](COP(=O)(O)OP(=O)(O)O)C(O)[C@H]3O)c2n1 (stereo partly drawn),AC50,[2]; [5],"11.6 µM [falling, partial curve]"
Cc1cc2c(cc1Cl)N(C(=O)Nc1ccc(Oc3cccnc3C)nc1)CC2,AC50,[2]; [4],"23.1 µM [falling, single point]"
CC(=O)/C=C1\C(=O)N(C)c2ccccc21,AC50,[2]; [4],"16.4 µM [falling, partial curve]"
O=C1/C(=C/c2ccsc2)CC/C1=C\c1cccs1,AC50,[2]; [4],"0.92 µM [falling, partial curve]"
CSc1nc(N)c2ncn([C@@H]3O[C@H](COP(=O)(O)OP(=O)(O)O)C(O)[C@H]3O)c2n1 (stereo partly drawn),AC50,[2]; [4],"20.6 µM [rising, single point]"

# Reference: PubChem BioAssay (NCATS)
